Reference: patent US9951087B2, “Fused ring analogues of anti-fibrotic agents” (Fibrotech Therapeutics PTY LTD, priority 2009, dated 2018)

Test: Compound precipitation observed during the proline incorporation assay
Assay type: physicochemical
Conditions: @ 30 & 100 uM
Procedure: Cells were plated into 24-well culture dishes in DMEM/5% FBS and allowed to adhere overnight. The subconfluent cells were then starved overnight in DMEM/0.1% FBS and 150 uM L-ascorbic acid, prior to pre-treatment with or without FibroTech compounds for 4 hours at 10, 30 or 100 uM in 0.1% DMSO, final concentration. TGF-beta 1 at 5 ng/mL (Peprotech) and tritiated proline (Perkin-Elmer, (2,3,4,5-^3H)-proline) at 1 uCi/mL were added and the incubation continued for a further 44 hours. Treatments were performed in triplicate.

Row | SMILES | Patches observed in culture
1 | C#CCOc1ccc(/C=C/c2nc3ccccc3c(=O)o2)cc1OC [FT107, (E)-2-(3-Methoxy-4-propargyloxystyryl)-4H-benzo[d][1,3]oxazin-4-one] | yellow floating
2 | O=c1oc(/C=C/c2ccc(OC(F)F)c(OC(F)F)c2)nc2ccccc12 [FT108, (E)-2-(3,4-Bis(difluoromethoxy)styryl)-4H-benzo[d][1,3]oxazin-4-one] | yellow jellylike
